Results are given in words; binding and its absence hold for the method and conditions named. Tags and fused reporters may be left off the sequences shown.
Target: 6His-AtFH2-FH2M (Arabidopsis thaliana) (UniProt O22824)
Test: SEC; Superdex 200 Increase 10/300; 100 mM Tris-HCl pH 8.5, 150 mM NaCl, 1 mM DTT, 5% glycerol; 0.4 mL/min; His-tag fusion proteins; both purified

binding: no binding
B1: 6His-AtFH2-FH2M (domain or fragment, UniProt O22824 438-864)
chain: EKKVETMKPKLKTLHWDKVRASSSRVMVWDQIKSNSFQVNEEMIETLFKVNDPTSRTRDGVVQSVSQENRFLDPRKSHNIAALLRALNVTADEVCEALIEGNSDTLGPELLECLLKMAPTKEEEDKLKELKDDDDGSPSKIGPAEKFLKALLNIPFAFKRIDAMLYIVKFESEIEYLNRSFDTLEAATGELKNTRMFLKLLEAVLKTGNRMNIGTNRGDAHAFKLDTLLKLVDIDGADGKTTLLHFVVQEIIKFEGARVPFTPSQSHIGDNMAEQSAFQDDLELKKLGLQVVSGLSSQLINVKKAAAMDSNSLINETAEIARGIAKVKEVITELKQETGVERFLESMNSFLNKGEKEITELQSHGDNVMKMVKEVTEYFHGNSETHPFRIFAVVRDFLTILDQVCKEVGRVNERTVYGSMPLHSPSN
